Results reported in article PMC4965873.
Results are given in words; binding and its absence hold for the method and conditions named. In cells and extracts the contact can be indirect. These calls come from enrichment with a bait or labelling near it, and not all partners need be listed.

B1: INPP5D (enzyme, UniProt Q9ES52 1-1191)
chain: MPAMVPGWNHGNITRSKAEELLSRAGKDGSFLVRASESIPRAYALCVLFRNCVYTYRILPNEDDKFTVQASEGVPMRFFTKLDQLIDFYKKENMGLVTHLQYPVPLEEEDAIDEAEEDTVESVMSPPELPPRNIPMSAGPSEAKDLPLATENPRAPEVTRLSLSETLFQRLQSMDTSGLPEEHLKAIQDYLSTQLLLDSDFLKTGSSNLPHLKKLMSLLCKELHGEVIRTLPSLESLQRLFDQQLSPGLRPRPQVPGEASPITMVAKLSQLTSLLSSIEDKVKSLLHEGSESTNRRSLIPPVTFEVKSESLGIPQKMHLKVDVESGKLIVKKSKDGSEDKFYSHKKILQLIKSQKFLNKLVILVETEKEKILRKEYVFADSKKREGFCQLLQQMKNKHSEQPEPDMITIFIGTWNMGNAPPPKKITSWFLSKGQGKTRDDSADYIPHDIYVIGTQEDPLGEKEWLELLRHSLQEVTSMTFKTVAIHTLWNIRIVVLAKPEHENRISHICTDNVKTGIANTLGNKGAVGVSFMFNGTSLGFVNSHLTSGSEKKLRRNQNYMNILRFLALGDKKLSPFNITHRFTHLFWLGDLNYRVELPTWEAEAIIQKIKQQQYSDLLAHDQLLLERKDQKVFLHFEEEEITFAPTYRFERLTRDKYAYTKQKATGMKYNLPSWCDRVLWKSYPLVHVVCQSYGSTSDIMTSDHSPVFATFEAGVTSQFVSKNGPGTVDSQGQIEFLACYATLKTKSQTKFYLEFHSSCLESFVKSQEGENEEGSEGELVVRFGETLPKLKPIISDPEYLLDQHILISIKSSDSDESYGEGCIALRLETTEAQHPIYTPLTHHGEMTGHFRGEIKLQTSQGKMREKLYDFVKTERDESSGMKCLKNLTSHDPMRQWEPSGRVPACGVSSLNEMINPNYIGMGPFGQPLHGKSTLSPDQQLTAWSYDQLPKDSSLGPGRGEGPPTPPSQPPLSPKKFSSSTANRGPCPRVQEARPGDLGKVEALLQEDLLLTKPEMFENPLYGSVSSFPKLVPRKEQESPKMLRKEPPPCPDPGISSPSIVLPKAQEVESVKGTSKQAPVPVLGPTPRIRSFTCSSSAEGRMTSGDKSQGKPKASASSQAPVPVKRPVKPSRSEMSQQTTPIPAPRPPLPVKSPAVLQLQHSKGRDYRDNTELPHHGKHRQEEGLLGRTAMQ
B2: catalytic subunit CD of PI3K (enzyme, UniProt O35904 1-1043)
chain: MPPGVDCPMEFWTKEESQSVVVDFLLPTGVYLNFPVSRNANLSTIKQVLWHRAQYEPLFHMLSDPEAYVFTCVNQTAEQQELEDEQRRLCDIQPFLPVLRLVAREGDRVKKLINSQISLLIGKGLHEFDSLRDPEVNDFRTKMRQFCEEAAAHRQQLGWVEWLQYSFPLQLEPSARGWRAGLLRVSNRALLVNVKFEGSEESFTFQVSTKDMPLALMACALRKKATVFRQPLVEQPEEYALQVNGRHEYLYGNYPLCHFQYICSCLHSGLTPHLTMVHSSSILAMRDEQSNPAPQVQKPRAKPPPIPAKKPSSVSLWSLEQPFSIELIEGRKVNADERMKLVVQAGLFHGNEMLCKTVSSSEVNVCSEPVWKQRLEFDISVCDLPRMARLCFALYAVVEKAKKARSTKKKSKKADCPIAWANLMLFDYKDQLKTGERCLYMWPSVPDEKGELLNPAGTVRGNPNTESAAALVIYLPEVAPHPVYFPALEKILELGRHGERGRITEEELQLREILERRGSGELYEHEKDLVWKMRHEVQEHFPEALARLLLVTKWNKHEDVAQMLYLLCSWPELPVLSALELLDFSFPDCYVGSFAIKSLRKLTDDELFQYLLQLVQVLKYESYLDCELTKFLLGRALANRKIGHFLFWHLRSEMHVPSVALRFGLIMEAYCRGSTHHMKVLMKQGEALSKLKALNDFVKVSSQKTTKPQTKEMMHMCMRQETYMEALSHLQSPLDPSTLLEEVCVEQCTFMDSKMKPLWIMYSSEEAGSAGNVGIIFKNGDDLRQDMLTLQMIQLMDVLWKQEGLDLRMTPYGCLPTGDRTGLIEVVLHSDTIANIQLNKSNMAATAAFNKDALLNWLKSKNPGEALDRAIEEFTLSCAGYCVATYVLGIGDRHSDNIMIRESGQLFHIDFGHFLGNFKTKFGINRERVPFILTYDFVHVIQQGKTNNSEKFERFRGYCERAYTILRRHGLLFLHLFALMRAAGLPELSCSKDIQYLKDSLALGKTEEEALKHFRVKFNEALRESWKTKVNWLAHNVSKDNRQ
B3: DIAPH2 (protein, UniProt O70566 1-1098)
chain: MEELGAAASGAGGGGGGGEEHGGGRSNKRGAGNRAANEEETRNKPKLRDRITSFRKSATKREKPVIQHSIDYQTAVVEIPPALIVHDDRSLILSEKEVLDLFEKMMEDMNLNEEKKAPLRKKDFSIKREMVVQYISATSKSIVGSKVLGGLKNSKHEFTLSSQEYVHELRSGISDEKLLNCLESLRVSLTSHPVSWVNNFGYEGLGVLLDVLEKLLDKKQQENIDKKNQYKVIQCLKAFMNNKFGLQRILGDERSLLLLARAIDPKQQNMMTEIVKILSAICIVGEENILDKLLGGITAAAELNNRERFSPIVEGLENNEALHLQVACMQFINALVTSPYDLDFRIHLRNEFLRCGLKAMLPTLKEIENEGLDIQLRVFEENKEDDLSELSHRLNDIRAEMDDINEVYHLLYNMLKDTAAEPYLLSILQHFLLIRNDYYIRPQYYKIIEECVSQIVLHCSGMDPDFKYRQRIDFDFTHLLDACVNKAKVEENEQKAMEFSKKFDEEFTARQEAQAELQKRDEKIKELETEIQQLRGQGVPSAIPGPPPPPPLPGAGPCPPPPPPPPPPPPLPGVVPPPPPPLPGMPGIPPPPPPPLSGVPPPPPPPGGVFPLLSGPIELPYGMKQKKLYKPDIPMKRINWSKIEPKELSENCVWLKLKEEKYENADLFAKLALTFPSQMKGQRNTEAAEENRSGPPKKKVKELRILDTKTAQNLSIFLGSYRMPYEEIKNIILEVNEEMLSEALIQNLVKYLPDQNALRELAQLKSEYDDLCEPEQFGVVMSTVKMLRPRLTSILFKLTFEEHVNNIKPSIIAVTLACEELKKSESFKRLLELILLVGNYMNSGSRNAQSLGFKINFLCKIKDTKSADQKSTLLHFLAEICDEKYRDILKFPDELEHVESAGKVSAQILKSNLVAMEQSILHLEKNIKNFPPAESHHDKFVEKMMSFTQNAREQYDKLSTMHSNMLKLYESLGEYFIFDPNTVNMEEFFGDLNTFRTLFLEALKENHKRKEMEEKSRRAKLAKEKAEQEKLERQKKKKQLIDINKEGDETGVMDNLLEALQSGAAFRDRRKRIPRNPDNRRPPLERSRSRHNGAMSSK
B4: CCT8 (protein, UniProt P42932 1-548)
chain: MALHVPKAPGFAQMLKDGAKHFSGLEEAVYRNIQACKELAQTTRTAYGPNGMNKMVINRLEKLFVTNDAATILRELEVQHPAAKMIVMASHMQEQEVGDGTNFVLVFAGALLELAEELLRIGLSVSEVISGYEIACKKAHEILPELVCCSAKNLRDVDEVSSLLRTSIMSKQYGSETFLAKLIAQACVSIFPDSGNFNVDNIRVCKILGSGIYSSSVLHGMVFKKETEGDVTSVKDAKIAVYSCPFDGMITETKGTVLIKTAEELMNFSKGEENLMDAQVKAIAGTGANVIVTGGKVADIALHYANKYNIMLVRLNSKWDLRRLCKTVGATALPKLTPPVQEEMGHCDSVYLSEVGDTQVVVFKHEKEDGAISTIVLRGSTDNLMDDIERAVDDGVNTFKVLTRDKRLVPGGGATEIELAKQITSYGETCPGLEQYAIKKFAEAFEAIPRALAENSGVKANEVISKLYSVHQEGNKNVGLDIEAEVPAVKDMLEASILDTYLGKYWAIKLATNAAVTVLRVDQIIMAKPAGGPKPPSGKKDWDDDQND
B5: PTPRC (receptor, UniProt P06800 26-1293)
chain: QTPTPSDELSTTENALLLPQSDPLPARTTESTPPSISERGNGSSETTYHPGVLSTLLPHLSPQPDSQTPSAGGADTQTFSSQADNPTLTPAPGGGTDPPGVPGERTVPGTIPADTAFPVDTPSLARNSSAASPTHTSNVSTTDISSGASLTTLTPSTLGLASTDPPSTTIATTTKQTCAAMFGNITVNYTYESSNQTFKADLKDVQNAKCGNEDCENVLNNLEECSQIKNISVSNDSCAPATTIDLYVPPGTDKFSLHDCTPKEKANTSICLEWKTKNLDFRKCNSDNISYVLHCEPENNTKCIRRNTFIPERCQLDNLRAQTNYTCVAEILYRGVKLVKNVINVQTDLGIPETPKPSCGDPAARKTLVSWPEPVSKPESASKPHGYVLCYKNNSEKCKSLPNNVTSFEVESLKPYKYYEVSLLAYVNGKIQRNGTAEKCNFHTKADRPDKVNGMKTSRPTDNSINVTCGPPYETNGPKTFYILVVRSGGSFVTKYNKTNCQFYVDNLYYSTDYEFLVSFHNGVYEGDSVIRNESTNFNAKALIIFLVFLIIVTSIALLVVLYKIYDLRKKRSSNLDEQQELVERDDEKQLMDVEPIHSDILLETYKRKIADEGRLFLAEFQSIPRVFSKFPIKDARKPHNQNKNRYVDILPYDYNRVELSEINGDAGSTYINASYIDGFKEPRKYIAAQGPRDETVDDFWRMIWEQKATVIVMVTRCEEGNRNKCAEYWPSMEEGTRAFKDIVVTINDHKRCPDYIIQKLNVAHKKEKATGREVTHIQFTSWPDHGVPEDPHLLLKLRRRVNAFSNFFSGPIVVHCSAGVGRTGTYIGIDAMLEGLEAEGKVDVYGYVVKLRRQRCLMVQVEAQYILIHQALVEYNQFGETEVNLSELHSCLHNMKKRDPPSDPSPLEAEYQRLPSYRSWRTQHIGNQEENKKKNRNSNVVPYDFNRVPLKHELEMSKESEPESDESSDDDSDSEETSKYINASFVMSYWKPEMMIAAQGPLKETIGDFWQMIFQRKVKVIVMLTELVNGDQEVCAQYWGEGKQTYGDMEVEMKDTNRASAYTLRTFELRHSKRKEPRTVYQYQCTTWKGEELPAEPKDLVSMIQDLKQKLPKASPEGMKYHKHASILVHCRDGSQQTGLFCALFNLLESAETEDVVDVFQVVKSLRKARPGVVCSYEQYQFLYDIIASIYPAQNGQVKKTNSQDKIEFHNEVDGGKQDANCVRPDGPLNKAQEDSRGVGTPEPTNSAEEPEHAANGSASPAPTQSS
B6: annexin A6 (protein, UniProt P14824 1-673)
chain: MAKIAQGAMYRGSVHDFPEFDANQDAEALYTAMKGFGSDKESILELITSRSNKQRQEICQNYKSLYGKDLIEDLKYELTGKFERLIVNLMRPLAYCDAKEIKDAISGVGTDEKCLIEILASRTNEQMHQLVAAYKDAYERDLESDIIGDTSGHFQKMLVVLLQGTRENDDVVSEDLVQQDVQDLYEAGELKWGTDEAQFIYILGNRSKQHLRLVFDEYLKTTGKPIEASIRGELSGDFEKLMLAVVKCIRSTPEYFAERLFKAMKGLGTRDNTLIRIMVSRSELDMLDIREIFRTKYEKSLYSMIKNDTSGEYKKALLKLCGGDDDAAGQFFPEAAQVAYQMWELSAVSRVELKGTVCAANDFNPDADAKALRKAMKGIGTDEATIIDIVTHRSNAQRQQIRQTFKSHFGRDLMADLKSEISGDLARLILGLMMPPAHYDAKQLKKAMEGAGTDEKTLIEILATRTNAEIRAINEAYKEDYHKSLEDALSSDTSGHFRRILISLATGNREEGGENRDQAQEDAQVAAEILEIADTPSGDKTSLETRFMTVLCTRSYPHLRRVFQEFIKKTNYDIEHVIKKEMSGDVKDAFVAIVQSVKNKPLFFADKLYKSMKGAGTDEKTLTRVMVSRSEIDLLNIRREFIEKYDKSLHQAIEGDTSGDFMKALLALCGGED

target: CBL-OST (mouse) (UniProt P22682); experiment: affinity purification with mass spectrometry; CBL-OST or CBLB-OST captured on Strep-Tactin Sepharose (1.5 h, 4°C) from postnuclear lysates (n-dodecyl-β-maltoside) of short-term expanded mouse CD4+ T cells, unstimulated or 30, 120, 300, 600 s after anti-CD3 + anti-CD4 cross-linking; eluted with 2.5 mM D-biotin; label-free LC-MS/MS against wild-type cells as control

binding, binds:
B1, B2, B3, B4, B5, B6
